From the supplement of paper PMC12889115 come the findings set out here.

This test concerns Salmonella enterica serovar Typhimurium SL1344. Briefly: bacterial growth OD600 after 18 h with compound and polymyxin B; higher = more bacterial growth (less inhibition). Particulars: 50 µM, Mueller-Hinton broth.

The list shows a part of the results. Values are raw readings; no control value is given beside them.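 Primary screen: polymyxin B was added at a level permeabilizing Salmonella outer membranes while sparing inner membranes. DMSO wells, both with and without polymyxin B, established maximum growth. Plate-to-plate variation meant each plate was ranked on its own, and the lowest-OD600 compounds were selected as hits.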

Turning to `COc1cc(CC2(CCC(=O)NCCc3cccc4ccccc34)CCC(=O)N2)ccc1F` (centres undefined), for the setting “polymyxin B 0.75 µg/mL”, the “bacterial growth OD600” value turned out to be 0.705.

Turning to `Cc1cc(C)n2nc(C(=O)N3CCC4(CC3)CC4C(=O)NCc3cccs3)cc2n1` (centres undefined), the “bacterial growth OD600” value (polymyxin B 0.75 µg/mL) amounted to 0.992.

For the compound `COc1cc(CC2(CCC(=O)NC3CCCc4ccccc43)CCC(=O)N2)ccc1F` (centres undefined), the “bacterial growth OD600” value (polymyxin B 0.75 µg/mL) is 0.801.

In the case of `C=CCC(=O)NC1CC(=O)N(Cc2cccc3ccccc23)C1` (centres undefined), the “bacterial growth OD600” value (polymyxin B 1 µg/mL) was 0.905.

As for `COc1c(C)cc(C(=O)C2CCCN(C(=O)Cn3c(=O)oc4ccccc43)C2)cc1C` (centres undefined), under “polymyxin B 1 µg/mL”, the “bacterial growth OD600” value was 0.01.

As for `COc1ccc(OC2CCN(C(=O)C3CC3)CC2)c(C(=O)NCc2cc(F)ccc2F)c1`, under “polymyxin B 1 µg/mL”, the “bacterial growth OD600” value amounted to 1.04.

As to `O=C(CCC1CCCN(C(=O)c2ccco2)C1)NCc1ccccc1Cl` (centres undefined), the “bacterial growth OD600” value (polymyxin B 1 µg/mL) was found to be 0.894.

On to `O=C(NC1CC1)c1coc(COc2cccc(C(F)(F)F)c2)n1`, for which the “bacterial growth OD600” value (polymyxin B 1 µg/mL) turned out to be 0.762.

Take `CCOC(=O)C1(Cc2ccccc2Cl)CCN(S(=O)(=O)c2ccccc2)CC1`: the “bacterial growth OD600” value (polymyxin B 1 µg/mL) worked out at 0.67.
